PubChem BioAssay AID652272 | Drosophila RNAi Screening Center – 2013
The deposit covers about 21,000 reagents; below is an unselected part of those that have a named target and a result. In the full data, 503 (2.4%) got an active call. 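Raw plate light values, not normalised; calls rest on replicate z-scores that were not deposited; hits include reporter decreases as well as increases.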 Entries without a mark were called inactive. A plus sign joins genes that one reagent is predicted to hit. Not given: the amount of reagent, the time to read-out.

Aim: 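Genes whose knock-down decreases or increases Hedgehog reporter output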 (primary screen)
Cells: Drosophila clone 8 (Cl8) cells
Reagent: long dsRNA against Drosophila genes
Measured: 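Firefly light from a Hedgehog-responsive ptc promoter reporter and Renilla reference light, both read on a plate reader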
Reading the numbers: firefly Hh reporter signal: higher = more ptc reporter light; Renilla reference signal: higher = more Renilla control light
Call rule: 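Called a hit if the two-replicate mean z-score lies below -2 or above +3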
Calls: active = hit: reporter lowered or raised; inactive = not a hit

| predicted target | amplicon | firefly Hh reporter signal, replicate 1 | firefly Hh reporter signal, replicate 2 | firefly Hh reporter signal, replicate 3 | Renilla reference signal, replicate 1 | Renilla reference signal, replicate 2 |
| --- | --- | --- | --- | --- | --- | --- |
| Dif (GeneID 35045) | DRSC03316 | 1.02e5 | 73816 | – | 2698 | 5957 |
| D19A (GeneID 38718) | DRSC11133 | 44342 | 54760 | – | 1859 | 1979 |
| CG31064 (GeneID 43277) | DRSC14756 | 89933 | 1.19e5 | – | 3040 | 3763 |
| CG31064 (GeneID 43277) | DRSC15941 | 86281 | 96528 | – | 2864 | 2582 |
| CG31064 (GeneID 43277) | DRSC15942 | 66678 | 94000 | – | 2153 | 2395 |
| CG31064 (GeneID 43277) | DRSC15943 | 60008 | 64284 | – | 2321 | 2166 |
| dia (GeneID 35340) | DRSC03519 | 65035 | 64757 | – | 1833 | 5958 |
| CG14545 (GeneID 50075) | DRSC14889 | 5.73e5 | 1.30e5 | – | 29597 | 3245 |
| strat (GeneID 34142) | DRSC03069 | 1.48e5 | 82720 | – | 3255 | 5749 |
| Ack-like (GeneID 36442) | DRSC07500 | 1.14e5 | 40980 | – | 4058 | 1338 |
| Klp10A (GeneID 32049) | DRSC19601 | 1.15e5 | 52427 | – | 3047 | 1680 |
| mIF2 (GeneID 43382) | DRSC14510 | 93456 | 1.41e5 | – | 1969 | 4549 |
| cnk (GeneID 36952) | DRSC07595 | 93728 | 49489 | – | 2010 | 3803 |
| Gapdh1 (GeneID 35728) | DRSC07433 | 68768 | 42929 | – | 1645 | 3831 |
| udt (GeneID 42809) | DRSC14214 | 5.12e5 | 1.36e5 | – | 23952 | 4016 |
| ATPsynG (GeneID 46069) | DRSC02928 | 4.77e5 (active) | 1.35e5 | 78227 | 21237 | 3522 |
| Tnpo (GeneID 38721) | DRSC11309 | 74436 | 64229 | – | 3081 | 2278 |
| Crz (GeneID 41742) | DRSC16615 | 1.10e5 | 99141 | – | 3568 | 2933 |
| Phm (GeneID 37823) | DRSC04639 | 1.08e5 | 1.06e5 | – | 4832 | 4128 |
| Lkb1 (GeneID 41673) | DRSC16481 | 1.35e5 | 96866 | – | 4752 | 3574 |
| CG17168 (GeneID 3354996) | DRSC20904 | 61681 | 2.07e5 | – | 1504 | 9232 |
| CG11674 (GeneID 32374) | DRSC19414 | 1.85e5 | 85748 | – | 4161 | 2211 |
| Prosalpha1R + Prosalpha1 | DRSC07515 | 38208 | 29920 | – | 2480 | 2156 |
| Uev1A (GeneID 38613) | DRSC09763 | 1.74e5 | 1.08e5 | – | 6899 | 4361 |
| mus302 (GeneID 39874) | DRSC09905 | 1.43e5 | – | – | 3169 | 3712 |
| ox (GeneID 45401) | DRSC07520 | 78589 | 55009 | – | 1364 | 3431 |
| alphaTub84B (GeneID 40848) | DRSC12622 | 84737 | 83277 | – | 3692 | 2435 |
| CG8160 (GeneID 36701) | DRSC07086 | 1.92e5 | 8.51e5 | 1.12e5 | 4976 | 49945 |
| m-cup (GeneID 42076) | DRSC14430 | 59244 | 87901 | – | 1602 | 5815 |
| CG12693 (GeneID 31375) | DRSC17882 | 86636 | 1.88e5 | – | 3168 | 6793 |
| ftz (GeneID 40834) | DRSC12626 | 1.04e5 | 1.77e5 | – | 3698 | 5095 |
| hid (GeneID 40009) | DRSC11316 | 1.34e5 | – | – | 2141 | 3334 |
| CG9570 (GeneID 33009) | DRSC20687 | 1.64e5 | 3.71e5 | – | 6539 | 14179 |
| CG7115 (GeneID 34069) | DRSC02000 | 1.48e5 | 51653 | – | 3623 | 6021 |
| CG13442 (GeneID 37349) | DRSC06402 | 79925 | 54676 | – | 3160 | 3962 |
| CG42360 (GeneID 37937) | DRSC04224 | 85126 | 50821 | – | 1619 | 4944 |
| PXo (GeneID 38666) | DRSC09734 | 1.15e5 | 77716 | – | 5529 | 3659 |
| CG17777 (GeneID 50374) | DRSC18137 | 96151 | 1.85e5 | – | 4237 | 8010 |
| CG34106 (GeneID 4379891) | DRSC01578 | 1.34e5 | 3.12e5 | – | 3522 | 12940 |
| CG8586 (GeneID 35854) | DRSC07218 | 1.24e5 | 70596 | – | 5634 | 3088 |
| CG13359 (GeneID 31028) | DRSC18539 | 94199 | 2.34e5 | – | 3634 | 10077 |
| CG5388 (GeneID 42612) | DRSC15789 | 4.72e5 | 2.18e5 | – | 21559 | 5813 |
| eIF4E7 (GeneID 31059) | DRSC17782 | 97517 | 2.53e5 | – | 3126 | 10913 |
| eIF4E7 (GeneID 31059) | DRSC18623 | 84405 | 2.15e5 | – | 1831 | 6160 |
| CG7131 (GeneID 42197) | DRSC16203 | 1.16e5 | 1.33e5 | – | 4096 | 5703 |
| CG30281 (GeneID 246525) | DRSC04528 | 1.04e5 | 1.09e5 | – | 3668 | 3840 |
| obe (GeneID 41891) | DRSC15736 | 1.36e5 | 61155 | – | 5341 | 1688 |
| raskol (GeneID 32754) | DRSC19202 | 4.19e5 | 2.47e5 | – | 26707 | 5797 |
| raskol (GeneID 32754) | DRSC19731 | 1.62e5 | 3.29e5 | – | 5717 | 12529 |
| raskol (GeneID 32754) | DRSC19964 | 98445 | 2.40e5 | – | 3495 | 9189 |
| raskol (GeneID 32754) | DRSC19967 | 32620 | 32584 | – | 1971 | 1381 |
| IRSp53 (GeneID 39258) | DRSC10891 | 36300 | 53089 | 43468 | 3896 | 3561 |
| Dph2 (GeneID 41802) | DRSC16222 | 1.10e5 | 70280 | – | 4764 | 3424 |
| Der-1 (GeneID 33369) | DRSC00301 | 1.44e5 | 88738 | – | 5328 | 3265 |
| UbcE2M (GeneID 38916) | DRSC10828 | 1.49e5 | 63622 | – | 4849 | 1868 |
| FASN1 (GeneID 33524) | DRSC00268 | 55888 | 55805 | – | 3412 | 2930 |
| lectin-30A (GeneID 53541) | DRSC02560 | 65821 | 31060 | – | 2181 | 3035 |

A few values from the entries so far:
Value of m-cup (GeneID 42076) [DRSC14430] in “Renilla reference signal, replicate 1”: 1602
Lkb1 (GeneID 41673) [DRSC16481], firefly Hh reporter signal, replicate 1: 1.35e5
mus302 (GeneID 39874) [DRSC09905], Renilla reference signal, replicate 1 = 3169
For “Renilla reference signal, replicate 2”, mIF2 (GeneID 43382) [DRSC14510] shows 4549
Klp10A (GeneID 32049) [DRSC19601], firefly Hh reporter signal, replicate 2: 52427
CG7115 (GeneID 34069) [DRSC02000], firefly Hh reporter signal, replicate 1: 1.48e5
